Taken from: PubChem BioAssay AID743121 (NCATS, 2013)
Here is a random part of about 26,000 reagents tested. 167 of all reagents (0.63%) were called active. 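Calls are per gene from RSA p-values that are not deposited; an individual active-marked siRNA can sensitise only weakly.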 Entries without a mark were called inactive. The numbers tell different reagents against one gene apart. Further read-outs or replicates are left out here. Reagent sequences are not shown.

Screen: 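Genes whose silencing strengthens cell killing by camptothecin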 (primary screen)
System: MDA-MB-231 cells, a human breast cancer line
Knock-down reagent: single siRNA against human genes, 20 nM siRNA (0.8 pmol per well)
Timing: 120 h (drug added 48 h after transfection, read 72 h later)
Conditions: camptothecin 20 nM (about EC30) for 72 h; vehicle 0.1% DMSO in parallel plates
Measurement: 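CellTiter-Glo ATP signal, scaled to control siRNA as percent viability; sensitisation given as log2 of untreated divided by camptothecin-treated viability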
Reading the numbers: log2 vehicle/camptothecin viability: higher = stronger sensitisation to camptothecin
Active means: 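Active genes have an RSA gene-level p-value below 0.001, computed from the ratios of their separate siRNAs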

gene knocked down	reagent no.	log2 vehicle/camptothecin viability
KCNH3 (GeneID 23416)	1	0.147
KCNH3 (GeneID 23416)	2	0.0107
KCNH3 (GeneID 23416)	3	0.523
KCNH3 (GeneID 23416)	4	-0.26
MAP3K2 (GeneID 10746)	1	-0.249
MAP3K2 (GeneID 10746)	2	-0.45
MAP3K2 (GeneID 10746)	3	-0.217
MAP3K2 (GeneID 10746)	4	-0.0951
EIPR1 (GeneID 7260)	1	-0.115
EIPR1 (GeneID 7260)	2	-0.562
EIPR1 (GeneID 7260)	3	-0.188
EIPR1 (GeneID 7260)	4	-0.246
ADGRG4 (GeneID 139378)	1	-0.065
ADGRG4 (GeneID 139378)	2	0.0775
ADGRG4 (GeneID 139378)	3	0.0759
ADGRG4 (GeneID 139378)	4	-0.118
CARD8 (GeneID 22900)	1	-0.14
CARD8 (GeneID 22900)	2	-0.412
CARD8 (GeneID 22900)	3	-0.0823
CETN2 (GeneID 1069)	1	-0.0298
CETN2 (GeneID 1069)	2	-0.107
CETN2 (GeneID 1069)	3	-0.548
CETN2 (GeneID 1069)	4	0.0651
GABRP (GeneID 2568)	1	0.0355
GABRP (GeneID 2568)	2	-0.163
GABRP (GeneID 2568)	3	-0.0878
GABRP (GeneID 2568)	4	0.059
RDH12 (GeneID 145226)	1	-0.403
RDH12 (GeneID 145226)	2	0.0113
RDH12 (GeneID 145226)	3	0.505
STK17A (GeneID 9263)	1	0.191
STK17A (GeneID 9263)	2	-0.168
STK17A (GeneID 9263)	3	0.0614
STK17A (GeneID 9263)	4	0.0281
DTNA (GeneID 1837)	1	-0.338
DTNA (GeneID 1837)	2	-0.41
DTNA (GeneID 1837)	3	-0.177
DTNA (GeneID 1837)	4	0.52
DTNA (GeneID 1837)	5	-0.00475
DTNA (GeneID 1837)	6	-0.197
DTNA (GeneID 1837)	7	-0.506
DTNA (GeneID 1837)	8	-0.2
PDE2A (GeneID 5138)	1	-0.00567
PDE2A (GeneID 5138)	2	0.112
PDE2A (GeneID 5138)	3	0.86
PDE2A (GeneID 5138)	4	0.404
